# Inconclusive results, whose numbers are uncertain, are shown with a selection of clear calls. Potencies beside an inconclusive call are fits to weak or partial responses and may not hold up. The source made the active and inactive calls. The calls were made as follows: active = hit-call score of the fitted dose curve at least 0.9, where 1 is the maximum; inconclusive = response in the unintended direction; inactive = score below 0.9. Positions of bridges follow the written chain, without caps; N, C: chain ends. Residues, ends and D or L forms follow the SMILES beside them.
# Test: TOX21_p53_BLA_p5_viability: Viability Assessment in the Tox21 HCT-116 p53 Agonism Beta-lactamase Assay, Phase 5 (AID 2283600)
# Text: TOX21_p53_BLA_p5 is a cell-based, single-readout assay that uses HCT116, a human intestinal cell line, […] in a 1536-well plate.TOX21_p53_BLA_p5_viability is an assay readout measuring cellular ATP content and detected with CellTiter-Glo Luciferase-coupled ATP quantitation.TOX21_p53_BLA_p5_viability used a type of viability reporter where loss-of-signal activity can be used to understand changes in the cell viability. Furthermore, this assay endpoint can be referred to as a secondary readout, because this assay has produced multiple assay endpoints where this one serves a viability function. To generalize the intended target to other relatable targets, this assay endpoint is annotated to the cell cycle intended target family, where the subfamily is cytotoxicity.
# Thawing Method: Place 14 mL of pre-warmed thaw medium into a 15 mL of conical tub. Remove the vial of cells to be thawed from liquid nitrogen and thaw rapidly by placing at 37C in a water bath with gentle agitation for 1-2 minutes. Decontaminate the vial by wiping with 70% ethanol before opening in a biological safety cabinet. Transfer the vial contents drop-wise into 14 mL of thaw medium in a sterile 15-mL conical tub. Centrifuge cells at 900 rpm for 4 minutes and resuspend in thaw medium. Transfer contents to the T75 tissue culture flask containing Thaw Medium and place flask in a humidified 37C/5% CO2 incubator. Switch to growth medium at first passage.Propagation Method: Aspirate medium, rinse once in DPBS, add 0.25% Trypsin/EDTA and swirl to coat the cell evenly. Add an equal volume of Growth Medium to inactivate Trypsin after 2-3 minutes incubation at 37C. Centrifuge cells at 900 rpm for 4 minutes and resuspend in growth medium. Cell should be passage or fed at least twice a week.Assay Protocol: Harvest cells from culture in growth medium and resuspend in assay medium. 2.2 Dispense 4000 cells/5 uL/well into 1536-well black/clear bottom plates using a Multidrop dispenser. After the cells were incubated at 37C for 5 hours, 23 nL of compounds dissolved in DMSO were transferred to the assay plate by a PinTool resulting in a 217-fold dilution. Incubate the plates for 16 hours at 37C, 5% CO2. Add 1 uL of 6X LiveBLAzer FRET B/G (CCF4-AM) Substrate Mixture to each well using a BioRAPTR dispenser and incubate the plates at room temperature for 2 hours. Measure fluorescence intensity at 460 and 530 nm emission and 405 nm excitation by an Envision detector. Data is expressed as the ratio of 460nm/530nm emissions. Add 4 uL of Cell-titer Glo to each well using BioRAPTR and incubate the plates at room temperature for […]. For cell viability readout that measures cytotoxicity, 4 ul/well of CellTiter-Glo reagent was added into the assay plates using a Flying Reagent Dispenser. After 30 min incubation at room temperature, the luminescence intensity in the plates was measured using a ViewLux plate reader.
SMILES,AC50,outcome
COC(=O)C1=C(C)NC(C)=C(C(=O)OC)C1c1ccccc1[N+](=O)[O-],inconclusive: 1.45 µM,–
N#CCC(=O)O,–,inactive
COC(=O)c1ccccc1C(=O)c1ccc(OCCN2CCCCC2)cc1,–,inactive
O=Cc1cccc(Br)c1,inconclusive: 47.1 µM,–
CC(=O)OCC(=O)[C@@]12OC3(CCCC3)O[C@@H]1C[C@H]1[C@@H]3CCC4=CC(=O)C=C[C@]4(C)[C@@]3(F)[C@@H](O)C[C@@]12C,inconclusive: 23 µM,–
CNCCCCOc1ccccc1Cc1ccccc1,–,inactive
O=C(NC1CCN(CCc2c[nH]c3ccccc23)CC1)c1ccccc1,inconclusive: 23 µM,–
Nc1cc(-c2ccncc2)c[nH]c1=O,–,inactive
O=C(O)CCc1nc2ccccc2[nH]1,inconclusive: 23 µM,–
[O]=[Mo](=[O])=[O],–,inactive
CCC(Cc1c(I)cc(I)c(O)c1I)C(=O)O (stereo not given),inconclusive: 23 µM,–
O=Cc1cccc([N+](=O)[O-])c1,inconclusive: 45.8 µM,–
C[Si](C)(C)C,inconclusive: 44.3 µM,–
CN1CCCN=C1/C=C/c1cccs1,inconclusive: 23 µM,–
CC1CC(C)C(=O)C1=O (stereo not given),inconclusive: 46.1 µM,–
O=C(O)c1cccc(-c2noc(-c3ccccc3F)n2)c1,–,inactive
CC(C)Oc1ccc2c(=O)c(-c3ccccc3)coc2c1,inconclusive: 6.05 µM,–
N#CCC(=O)NN,–,inactive
CC1CCc2c(N3CCC(O)CC3)c(F)cc3c(=O)c(C(=O)O)cn1c23 (stereo not given),inconclusive: 23 µM,–
CCOC(=O)c1c(C)n(C)c2ccc(O)cc12,inconclusive: 23 µM,–

# A portion from further up, as a working copy:
SMILES,AC50,outcome
CNCCCCOc1ccccc1Cc1ccccc1,–,inactive
O=C(NC1CCN(CCc2c[nH]c3ccccc23)CC1)c1ccccc1,inconclusive: 23 µM,–

# (continued)

SMILES,AC50,outcome
CC/C=C\C/C=C\C/C=C\C/C=C\C/C=C\CCCC(=O)O,–,inactive
COC(OC)OC,inconclusive: 45.5 µM,–
O=C(CCCN1CCN2CCCC2C1)c1ccc(F)cc1 (stereo not given),inconclusive: 1.88 µM,–
SCCCCCCCCS,inconclusive: 46.1 µM,–
Cc1ccc2c(c1)c1c3n2CCNC3CCC1 (stereo not given),inconclusive: 23 µM,–
CCC=CC#N,–,inactive
OC(CN1CCC(Cc2ccc(F)cc2)CC1)c1ccc(Cl)cc1 (stereo not given),–,inactive
ClC1=C(Cl)C1(Cl)Cl,–,inactive
CS(=O)(=O)Nc1ccc([N+](=O)[O-])cc1Oc1ccccc1,inconclusive: 10.3 µM,–
FC(F)(F)C(F)(F)C(F)(F)C(F)(F)C(F)(F)F,inconclusive: 23 µM,–
CCCCCCCCCCCCCC(=O)OCC(COP(=O)([O-])OCC[N+](C)(C)C)OC(=O)CCCCCCCCCCCCC (stereo not given),inconclusive: 23 µM,–
CC(=O)Nc1ccn(C2COC(COC(=O)c3ccccc3)O2)c(=O)n1 (stereo not given),inconclusive: 23 µM,–
NCCCC[C@H](NC(=O)[C@@H]1CCCN1C(=O)[C@@H]1CSSC[C@H](N)C(=O)N[C@@H](Cc2ccccc2)C(=O)N[C@@H](Cc2ccccc2)C(=O)N[C@@H](CCC(N)=O)C(=O)N[C@@H](CC(N)=O)C(=O)N1)C(=O)NCC(N)=O (H-CFFQNCPKG-NH2; disulfide 1-6),–,inactive
C[C@H]1C[C@H]2[C@@H]3CCC4=CC(=O)C=C[C@]4(C)[C@@]3(Cl)[C@@H](O)C[C@]2(C)[C@@]1(O)C(=O)CO,–,inactive
CN(C)c1ccc(CCO)cc1,inconclusive: 45.9 µM,–
Oc1cccc2cc3cccc(O)c3c(O)c12,inconclusive: 46.3 µM,–
CC(=O)Nc1ccc(N)cc1,inconclusive: 46.6 µM,–
CCN(CCCCOC(=O)c1ccc(OC)c(OC)c1)C(C)Cc1ccc(OC)cc1 (stereo not given),inconclusive: 10.3 µM,–
Nc1cc(S(=O)(=O)O)ccc1S(=O)(=O)O,inconclusive: 86 µM,–
Cc1cc(CC(=O)O)c(C)n1-c1ccc(Cl)cc1,–,inactive

# — PubChem BioAssay (EPA / NIEHS)
